In US6620771B2, “Thiadiazole dimer additives and lubricating compositions containing the same” (R. T. Vanderbilt Company, Inc., priority 1999, dated 2003):

Test: Timken Load Test (ASTM D-2509) of grease formulations containing the additive
Details: tested at 50 lbs.; approximately 5 wt. % in Lithium-12 hydroxystearate grease

Sc1nnc(SSc2nnc(S)s2)s1 [DMTD dimer (VI)]
Timken OK Load (Pass or Fail) 50 lbs.: Fail
